Measurements from patent US7205433B2, “Crystal of amino acid ester salt and process for producing the same” (Ajinomoto Co., Inc., priority 2002, dated 2007).

Legend:
[1] = Experimental Example 6: corrosiveness evaluation; conditions: SUS 316 L; for corrosion state of the stainless plate: 22 EC, 30% RH; for corrosion state of the stainless plate and state of the salt: 8 days later (24° C., 65% RH; 6 hours)
[2] = Corrosiveness evaluation, summary
[3] = Experimental Example 3: comparison of corrosiveness to stainless; conditions: SUS 316 L; for corrosion state of the stainless plate: 22° C.; for corrosion state of the stainless plate and state of the salt: Day 8 (after standing at 24° C., 65% RH; 9 hours)

Row | Molecule | corrosion state of the stainless plate ([1]; 1 day later) | corrosion state of the stainless plate ([1]; 6 days later) | corrosion state of the stainless plate ([1]; 7 days later) | corrosion state of the stainless plate and state of the salt [1] | other results
1 | CCOC(=O)[C@H](C)N.O=S(=O)(O)c1ccc(Cl)cc1 [L-Ala-OEt 4-CBS salt, L-alanine ethyl ester 4-chlorobenzenesulfonate] | No change | No change | No change | partly liquefied, though without rust | –
2 | COC(=O)[C@H](C)N.Cl [L-Ala-OMe HCl salt, alanine methyl ester hydrochloride, reference compound] | No change | – | – | – | corrosion state of the stainless plate ([1]; 6 days later, hydrochloride): developed a rust; corrosiveness against stainless [2]: showed corrosiveness against stainless; corrosion state of the stainless plate ([3]; 30% RH, Day 1, hydrochloride): caused a brown rust on the stainless plate; corrosion state of the stainless plate ([3]; 30% RH, Day 7, hydrochloride): the rust increased; corrosion state of the stainless plate and state of the salt ([3]; hydrochloride): became a colorless liquid
3 | L-alanine ethyl ester 4-ethylbenzenesulfonate [L-Ala-OEt 4-EBS salt] | No change | No change | No change | No change | –
4 | CCOC(=O)[C@H](C)N.CS(=O)(=O)O [L-Ala-OEt MsOH salt, L-alanine ethyl ester methanesulfonate] | No change | No change | No change | – | corrosion state of the stainless plate ([3]; 30% RH, Day 1): No change; corrosion state of the stainless plate ([3]; 30% RH, Day 7): No change; corrosion state of the stainless plate and change of the salt over the whole period ([3]; 7 days at 22° C., 30% RH, then 9 hours at 24° C., 65% RH): showed no change during this period, and no rust was found on the stainless plate
5 | L-alanine ethyl ester 2,5-dimethylbenzenesulfonate [L-Ala-OEt 2,5-DMBS salt] | No change | No change | No change | No change | –
6 | CCOC(=O)[C@H](C)N.Cl [L-Ala-OEt HCl salt, alanine ethyl ester hydrochloride] | – | – | – | – | corrosion state of the stainless plate ([1]; 1 day later, hydrochloride): developed a brown rust on the stainless plate; corrosion state of the stainless plate ([1]; 6 days later, hydrochloride): developed more rust; corrosiveness against stainless [2]: showed corrosiveness against stainless; corrosion state of the stainless plate ([3]; 30% RH, Day 1, hydrochloride): caused a brown rust on the stainless plate; corrosion state of the stainless plate ([3]; 30% RH, Day 7, hydrochloride): the rust increased; corrosion state of the stainless plate and state of the salt ([3]; hydrochloride): became a brown liquid with the color of the rust
7 | CCOC(=O)[C@H](C)N.O=S(=O)(O)c1ccccc1 [L-Ala-OEt BsOH salt, L-alanine ethyl ester benzenesulfonate] | No change | No change | No change | – | corrosion state of the stainless plate and state of the salt ([1]; benzenesulfonate): partly liquefied, though without rust
8 | L-alanine ethyl ester 2,4-dimethylbenzenesulfonate [L-Ala-OEt 2,4-DMBS salt] | No change | No change | No change | No change | –
